Experimental data taken from patent publication US20120041175A1.
These are yes or no findings as the source states them, for the method shown. Binding seen in cells or lysates may run through a third protein. Some entries that bind do so weakly or less than the wild type. Where a sequence is shown, tags or fusion partners need not be part of it.

Sequences of proteins named here, by UniProt entry; tags and fusion partners are left off. A change or cut given only in a name is not applied to a line headed by its entry.
UniProt O88597: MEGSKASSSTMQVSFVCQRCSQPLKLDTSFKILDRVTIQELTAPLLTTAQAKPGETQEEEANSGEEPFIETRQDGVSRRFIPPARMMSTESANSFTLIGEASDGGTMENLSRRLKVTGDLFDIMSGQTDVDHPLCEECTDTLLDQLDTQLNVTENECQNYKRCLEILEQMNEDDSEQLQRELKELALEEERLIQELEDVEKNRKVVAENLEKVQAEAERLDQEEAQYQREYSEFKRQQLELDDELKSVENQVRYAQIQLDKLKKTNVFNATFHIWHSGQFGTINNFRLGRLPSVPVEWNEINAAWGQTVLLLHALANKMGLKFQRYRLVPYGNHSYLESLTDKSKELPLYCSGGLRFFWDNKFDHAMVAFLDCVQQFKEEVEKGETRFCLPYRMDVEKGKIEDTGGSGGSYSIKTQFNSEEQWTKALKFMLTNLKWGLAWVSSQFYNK
UniProt Q8NEB9: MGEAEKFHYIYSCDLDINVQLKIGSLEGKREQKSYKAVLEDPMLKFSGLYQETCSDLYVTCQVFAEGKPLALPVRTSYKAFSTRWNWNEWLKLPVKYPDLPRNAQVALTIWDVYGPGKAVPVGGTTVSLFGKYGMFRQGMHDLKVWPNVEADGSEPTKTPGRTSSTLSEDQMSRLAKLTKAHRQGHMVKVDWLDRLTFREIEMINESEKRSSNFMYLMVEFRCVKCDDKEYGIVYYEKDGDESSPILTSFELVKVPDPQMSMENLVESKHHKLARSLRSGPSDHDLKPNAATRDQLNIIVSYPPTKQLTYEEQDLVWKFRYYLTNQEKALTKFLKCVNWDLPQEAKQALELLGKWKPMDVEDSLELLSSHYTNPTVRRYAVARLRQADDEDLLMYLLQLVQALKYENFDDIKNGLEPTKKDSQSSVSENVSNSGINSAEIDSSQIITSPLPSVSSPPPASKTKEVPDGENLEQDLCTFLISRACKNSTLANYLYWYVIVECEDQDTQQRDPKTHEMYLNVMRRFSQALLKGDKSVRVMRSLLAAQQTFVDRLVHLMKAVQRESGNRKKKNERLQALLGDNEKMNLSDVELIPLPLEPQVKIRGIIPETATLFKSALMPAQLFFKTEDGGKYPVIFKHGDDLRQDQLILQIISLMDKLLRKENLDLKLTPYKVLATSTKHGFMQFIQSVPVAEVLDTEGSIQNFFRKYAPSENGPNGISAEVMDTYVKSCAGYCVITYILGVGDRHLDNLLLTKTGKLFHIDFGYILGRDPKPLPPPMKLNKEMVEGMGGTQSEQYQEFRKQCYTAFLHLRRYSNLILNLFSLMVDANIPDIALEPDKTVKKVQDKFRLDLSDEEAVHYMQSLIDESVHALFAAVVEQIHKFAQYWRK

Columns and labels:
[1] = molecular target: FLAG-Beclin 1-CE (FLAG-tagged Beclin 1 mutant containing coiled-coil and evolutionarily conserved domains) (mouse) (UniProt O88597); assay: co-IP with anti-GFP antibody from co-transfected HEK 293T cells; anti-FLAG blot
[2] = molecular target: Beclin 1-Vps34/PtdIns3K complex (endogenous, HEK 293T cells) (human) (UniProt Q8NEB9); assay: co-IP with anti-GFP antibody from transfected HEK 293T cells

B1: Rubicon-EGFP (full-length mouse Rubicon tagged with EGFP at the C-terminus) (protein, not shown: large carriers)
chain: MRPEGAGMDLGGGDGERLLEKSRREHWQLLGNLKTTVEGLVSANCPNVWSKYGGLERLCRDMQNILYHGLIHDQVCCRQADYWQFVKDIRWLSPHSALHVEKFISLHESDQSDTDSVSERAVAELWLQHSLQCHCLSAQLRPLLGDRQYIRKFYTETAFLLSDAHVTAMLQCLEAVEQNNPRLLAQIDASMFARKQESPLLVTKSQSLTALPGSTYTPPASYAQHSYFGSSSSLQSMPQSSHSSERRSTSFSLSGPSWQPQEDRECLSPAETQTTPAPLPSDSTLAQDSPLTAQEMSDSTLTSPLEASWVSSQNDSPSDVSEGPEYLAIGNPAPHGRTASCESHSSNGESSSSHLFSSSSSQKLESAASSLGDQEEGRQSQAGSVLRRSSFSEGQTAPVASGTKKSHIRSHSDTNIASRGAAEGGQYLCSGEGMFRRPSEGQSLISYLSEQDFGSCADLEKENAHFSISESLIAAIELMKCNMMSQCLEEEEVEEEDSDREIQELKQKIRLRRQQIRTKNLLPAYRETENGSFRVTSSSSQFSSRDSTQLSESGSAEDADDLEIQDADIRRSAVSNGKSSFSQNLSHCFLHSTSAEAVAMGLLKQFEGMQLPAASELEWLVPEHDAPQKLLPIPDSLPISPDDGQHADIYKLRIRVRGNLEWAPPRPQIIFNVHPAPTRKIAVAKQNYRCAGCGIRTDPDYIKRLRYCEYLGKYFCQCCHENAQMVVPSRILRKWDFSKYYVSNFSKDLLLKIWNDPLFNVQDINSALYRKVKLLNQVRLLRVQLYHMKNMFKTCRLAKELLDSFDVVPGHLTEDLHLYSLSDLTATKKGELGPRLAELTRAGAAHVERCMLCQAKGFICEFCQNEEDVIFPFELHKCRTCEECKACYHKTCFKSGRCPRCERLQARRELLAKQSLESYLSDYEEEPTEALALEATVLETT
binding [1]: binds | binding [2]: binds
